Reference: patent US20190116795A1, “USE OF TENVERMECTIN IN CONTROL OF HARMFUL INSECTS IN AGRICULTURAL AND FOREST CROPS” (ZHEJIANG HISUN PHARMACEUTICAL CO., LTD., priority 2016, published 2019)
Some of these results come from one statement about several compounds together. At least one structure is not confirmed: it was looked up by name or label, or the drawing left a doubt.

Test system: zebrafish
Test: Toxicity test on zebrafish, semi-static method
Assay type: in vivo, Brachydanio rerio
Details: for toxicity grade according to LC50 on zebrafish: 96-hour LC50; for 96-hour LC50 on zebrafish: bound inferred from survival rates
Protocol: Test fish and water: zebrafish (Brachydanio rerio) were purchased from Zhejiang Academy of Agricultural Sciences and were of uniform size with an average body length of 2-3 cm and an average body weight of 0.3 g. They were domesticated for 7 days indoors before the test. The natural mortality rate was zero. Feeding was stopped 1 day before the test and the fish were not fed during the test. The test water was tap water after removing residual chlorine by exposure to the sun for more than 24 hours, and the pH was 6.8.
The sample was formulated into 50 mg/ml mother liquor with DMF.
Method: Semi-static method. Three level differences were set for each sample:
0.5 ppm, 1.0 ppm and 2.0 ppm, and three sets of parallels were set for each level difference, 10 zebrafish were raised for each group, and blank controls (one group without agents and one group with only solvent) were set. The corresponding volume of mother liquor was taken according to the concentration as required for each sample, and the volume of each sample was adjusted to 150 μl with DMF, and then each sample was added to the test group (containing 1.6 L of water). The room temperature was controlled at 22±2° C. for 96 hours, and the water was changed every 24 hours and the samples were re-added. The fish mortality rate was recorded for the first 8 hours and at 24, 48, 72, and 96 hours, and the dead fish were removed in time. Finally, the agents were divided into three grades according to the values of LC50: low-toxic pesticides with a LC50>10 ppm, middle-toxic pesticides with a LC50 of 1.0-10 ppm, and high-toxic pesticides with a LC50<1.0 ppm.

Molecule	toxicity grade according to LC50 on zebrafish	96-hour LC50 on zebrafish
Milbemycin	high-toxic (high-toxic pesticides with a LC50<1.0 ppm)	< 0.5 ppm
CC[C@H](C)C1O[C@]2(C=C[C@@H]1C)C[C@@H]1C[C@@H](C/C=C(\C)[C@@H](O[C@H]3C[C@H](OC)[C@@H](O[C@H]4C[C@H](OC)[C@H](NC)[C@H](C)O4)[C@H](C)O3)[C@@H](C)/C=C/C=C3\CO[C@@H]4[C@H](O)C(C)=C[C@@H](C(=O)O1)[C@]34O)O2.O=C(O)c1ccccc1 (stereo partly drawn) [Methylamino abamectin benzoate]	high-toxic (high-toxic pesticides with a LC50<1.0 ppm)	< 0.5 ppm
Abamectin	high-toxic (high-toxic pesticides with a LC50<1.0 ppm)	< 0.5 ppm
